Test results published in ChEMBL document CHEMBL4495565, “Cytopathic SARS-Cov2 screening on VERO-E6 cells in a large repurposing effort” (2020).
Structures can show the parent of a compound that is named as a salt.

System: SARS-CoV-2
Assay: microbe, parasite or virus in culture
Format: functional, organism-based, Chlorocebus sabaeus
Details: Severe acute respiratory syndrome coronavirus 2, Vero C1008, 48 h

For `CCN(CC)CCOc1ccc(C(=C(Cl)c2ccccc2)c2ccccc2)cc1` [CLOMIPHENE CITRATE], the IC50 was 13.6 µM.
For `CN(C)C(=O)C(CCN1CCC(O)(c2ccc(Cl)cc2)CC1)(c1ccccc1)c1ccccc1` [LOPERAMIDE], the IC50 was 17.2 µM.
